In the supplement of paper PMC6411743:
± gives the standard deviation of the averaged measurements. Only a part is listed here, and it is no random draw.

Sequences of proteins named here, by UniProt entry; tags and fusion partners are left off. A change or cut given only in a name is not applied to a line headed by its entry.
UniProt P61421, whole entry: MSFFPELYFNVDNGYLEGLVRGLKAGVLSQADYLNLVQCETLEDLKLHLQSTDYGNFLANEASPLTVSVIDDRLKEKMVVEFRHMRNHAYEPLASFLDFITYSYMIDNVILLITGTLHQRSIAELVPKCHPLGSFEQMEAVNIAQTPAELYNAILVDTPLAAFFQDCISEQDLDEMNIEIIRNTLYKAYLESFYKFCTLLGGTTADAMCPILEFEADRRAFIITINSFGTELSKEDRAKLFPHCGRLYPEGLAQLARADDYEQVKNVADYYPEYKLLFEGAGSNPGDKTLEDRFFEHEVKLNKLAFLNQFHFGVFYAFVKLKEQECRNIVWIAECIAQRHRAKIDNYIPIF
UniProt P07766, whole entry: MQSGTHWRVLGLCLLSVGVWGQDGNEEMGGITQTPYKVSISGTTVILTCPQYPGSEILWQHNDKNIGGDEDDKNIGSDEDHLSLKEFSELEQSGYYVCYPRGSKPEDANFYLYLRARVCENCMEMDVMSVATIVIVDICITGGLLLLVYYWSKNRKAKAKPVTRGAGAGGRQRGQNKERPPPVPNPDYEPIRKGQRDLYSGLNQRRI
UniProt O43795: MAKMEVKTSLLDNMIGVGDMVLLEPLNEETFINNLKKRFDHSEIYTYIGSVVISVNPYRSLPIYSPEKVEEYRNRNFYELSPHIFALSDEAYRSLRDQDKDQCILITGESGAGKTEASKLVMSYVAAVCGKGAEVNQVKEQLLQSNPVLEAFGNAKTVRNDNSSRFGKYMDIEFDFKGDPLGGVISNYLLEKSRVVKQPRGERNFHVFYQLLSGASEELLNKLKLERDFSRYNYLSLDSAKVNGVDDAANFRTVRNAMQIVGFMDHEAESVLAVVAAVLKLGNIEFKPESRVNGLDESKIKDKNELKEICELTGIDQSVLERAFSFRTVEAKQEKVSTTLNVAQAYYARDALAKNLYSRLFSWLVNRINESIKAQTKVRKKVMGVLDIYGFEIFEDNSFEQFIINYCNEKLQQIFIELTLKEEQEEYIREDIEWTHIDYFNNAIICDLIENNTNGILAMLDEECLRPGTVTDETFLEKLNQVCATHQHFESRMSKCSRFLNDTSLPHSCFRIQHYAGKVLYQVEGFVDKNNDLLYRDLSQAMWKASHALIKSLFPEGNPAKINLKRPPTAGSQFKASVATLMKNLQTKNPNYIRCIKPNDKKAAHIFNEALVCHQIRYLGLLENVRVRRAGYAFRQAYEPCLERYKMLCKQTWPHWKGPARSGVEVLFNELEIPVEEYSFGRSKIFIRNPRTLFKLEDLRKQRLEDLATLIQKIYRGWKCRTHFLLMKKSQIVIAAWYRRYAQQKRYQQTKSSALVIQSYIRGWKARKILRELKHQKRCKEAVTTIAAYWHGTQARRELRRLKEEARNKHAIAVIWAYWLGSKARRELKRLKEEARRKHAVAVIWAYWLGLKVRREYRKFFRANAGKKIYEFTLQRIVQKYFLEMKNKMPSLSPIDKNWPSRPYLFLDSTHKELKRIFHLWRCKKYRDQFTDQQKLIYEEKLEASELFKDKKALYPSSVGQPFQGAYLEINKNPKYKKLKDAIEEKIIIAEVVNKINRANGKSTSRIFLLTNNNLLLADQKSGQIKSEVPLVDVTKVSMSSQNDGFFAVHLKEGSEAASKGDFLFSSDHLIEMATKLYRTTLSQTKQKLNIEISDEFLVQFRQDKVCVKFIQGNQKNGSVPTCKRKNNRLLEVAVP
UniProt Q00537: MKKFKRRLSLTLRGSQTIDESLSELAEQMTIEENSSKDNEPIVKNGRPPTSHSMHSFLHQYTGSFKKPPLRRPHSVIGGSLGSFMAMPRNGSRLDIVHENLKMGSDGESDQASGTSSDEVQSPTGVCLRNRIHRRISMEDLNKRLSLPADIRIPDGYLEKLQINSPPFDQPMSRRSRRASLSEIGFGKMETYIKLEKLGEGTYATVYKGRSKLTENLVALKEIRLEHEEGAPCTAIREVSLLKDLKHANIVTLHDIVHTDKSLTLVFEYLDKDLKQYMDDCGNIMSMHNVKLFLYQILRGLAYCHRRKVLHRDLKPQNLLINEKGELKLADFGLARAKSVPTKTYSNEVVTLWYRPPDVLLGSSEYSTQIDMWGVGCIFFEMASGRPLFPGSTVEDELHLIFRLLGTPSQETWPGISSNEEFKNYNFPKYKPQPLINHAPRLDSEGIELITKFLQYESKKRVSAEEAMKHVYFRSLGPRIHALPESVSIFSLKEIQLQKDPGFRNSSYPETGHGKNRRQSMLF
UniProt P98171: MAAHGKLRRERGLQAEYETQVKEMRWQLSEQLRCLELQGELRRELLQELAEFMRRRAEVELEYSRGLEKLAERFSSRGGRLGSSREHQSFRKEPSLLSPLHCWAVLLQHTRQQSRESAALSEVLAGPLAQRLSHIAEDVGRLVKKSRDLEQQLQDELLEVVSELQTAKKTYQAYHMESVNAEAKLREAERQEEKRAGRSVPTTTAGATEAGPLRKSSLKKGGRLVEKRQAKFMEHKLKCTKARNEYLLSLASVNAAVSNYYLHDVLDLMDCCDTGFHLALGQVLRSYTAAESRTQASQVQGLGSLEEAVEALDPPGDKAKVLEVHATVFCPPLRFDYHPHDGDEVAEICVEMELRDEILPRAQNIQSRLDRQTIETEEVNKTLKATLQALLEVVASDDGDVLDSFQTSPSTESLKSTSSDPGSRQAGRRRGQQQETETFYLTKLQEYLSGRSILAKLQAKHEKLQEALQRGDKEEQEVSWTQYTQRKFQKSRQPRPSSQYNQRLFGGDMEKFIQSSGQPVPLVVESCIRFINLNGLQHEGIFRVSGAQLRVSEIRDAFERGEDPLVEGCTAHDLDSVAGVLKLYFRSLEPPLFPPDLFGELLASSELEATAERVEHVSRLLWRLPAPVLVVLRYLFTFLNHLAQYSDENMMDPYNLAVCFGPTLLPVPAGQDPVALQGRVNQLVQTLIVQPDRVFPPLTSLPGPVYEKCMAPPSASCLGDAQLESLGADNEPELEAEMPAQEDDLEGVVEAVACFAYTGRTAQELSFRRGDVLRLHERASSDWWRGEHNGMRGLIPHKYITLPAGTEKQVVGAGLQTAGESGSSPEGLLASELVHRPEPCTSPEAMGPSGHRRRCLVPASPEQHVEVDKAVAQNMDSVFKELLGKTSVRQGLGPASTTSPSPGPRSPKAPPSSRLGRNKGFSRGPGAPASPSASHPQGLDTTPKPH
UniProt Q9UNP9: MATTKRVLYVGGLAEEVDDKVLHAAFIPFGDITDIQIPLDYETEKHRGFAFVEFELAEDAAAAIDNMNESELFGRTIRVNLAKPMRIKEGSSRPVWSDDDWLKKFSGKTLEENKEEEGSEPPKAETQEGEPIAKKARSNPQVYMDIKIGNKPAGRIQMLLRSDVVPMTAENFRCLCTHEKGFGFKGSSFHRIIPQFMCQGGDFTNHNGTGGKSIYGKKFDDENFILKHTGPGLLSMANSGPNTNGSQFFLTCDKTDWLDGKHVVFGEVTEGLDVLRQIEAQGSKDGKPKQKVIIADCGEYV
UniProt P12694: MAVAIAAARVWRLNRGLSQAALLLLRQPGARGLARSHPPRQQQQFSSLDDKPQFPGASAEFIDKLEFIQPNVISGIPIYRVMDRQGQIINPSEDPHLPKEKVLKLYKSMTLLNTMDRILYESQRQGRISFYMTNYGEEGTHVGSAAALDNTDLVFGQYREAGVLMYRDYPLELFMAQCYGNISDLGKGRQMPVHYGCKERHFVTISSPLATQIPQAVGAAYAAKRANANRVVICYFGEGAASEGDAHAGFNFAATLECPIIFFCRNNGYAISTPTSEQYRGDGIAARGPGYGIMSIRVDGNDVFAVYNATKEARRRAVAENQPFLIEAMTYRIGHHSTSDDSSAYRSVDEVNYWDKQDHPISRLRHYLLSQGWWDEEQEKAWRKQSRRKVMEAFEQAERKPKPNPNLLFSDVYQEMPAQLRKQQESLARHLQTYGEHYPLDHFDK
UniProt O43427: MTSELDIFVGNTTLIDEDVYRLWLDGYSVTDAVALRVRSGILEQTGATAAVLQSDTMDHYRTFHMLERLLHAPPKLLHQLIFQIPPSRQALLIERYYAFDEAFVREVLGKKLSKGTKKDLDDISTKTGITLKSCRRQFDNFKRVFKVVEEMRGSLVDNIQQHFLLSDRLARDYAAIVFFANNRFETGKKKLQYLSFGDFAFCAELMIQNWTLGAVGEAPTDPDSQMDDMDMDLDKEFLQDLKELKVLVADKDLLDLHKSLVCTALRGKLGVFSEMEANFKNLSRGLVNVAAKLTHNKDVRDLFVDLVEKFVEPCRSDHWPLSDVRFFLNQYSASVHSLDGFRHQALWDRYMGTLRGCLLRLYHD
UniProt Q8IZ69: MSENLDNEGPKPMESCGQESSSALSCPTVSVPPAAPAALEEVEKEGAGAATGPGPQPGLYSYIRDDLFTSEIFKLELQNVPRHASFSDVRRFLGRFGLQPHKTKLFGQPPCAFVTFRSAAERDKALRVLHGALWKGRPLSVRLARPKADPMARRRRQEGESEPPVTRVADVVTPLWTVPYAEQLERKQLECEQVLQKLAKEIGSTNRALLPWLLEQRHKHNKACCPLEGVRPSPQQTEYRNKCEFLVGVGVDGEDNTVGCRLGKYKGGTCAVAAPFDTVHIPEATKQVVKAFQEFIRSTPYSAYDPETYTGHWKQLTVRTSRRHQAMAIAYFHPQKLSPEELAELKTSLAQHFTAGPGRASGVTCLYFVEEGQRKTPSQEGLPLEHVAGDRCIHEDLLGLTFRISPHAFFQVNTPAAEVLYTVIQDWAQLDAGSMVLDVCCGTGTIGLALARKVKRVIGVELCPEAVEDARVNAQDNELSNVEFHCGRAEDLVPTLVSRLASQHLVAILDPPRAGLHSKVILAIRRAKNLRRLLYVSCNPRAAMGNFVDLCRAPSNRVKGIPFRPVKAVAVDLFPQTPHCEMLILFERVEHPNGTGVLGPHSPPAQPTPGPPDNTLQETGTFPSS
UniProt P55347: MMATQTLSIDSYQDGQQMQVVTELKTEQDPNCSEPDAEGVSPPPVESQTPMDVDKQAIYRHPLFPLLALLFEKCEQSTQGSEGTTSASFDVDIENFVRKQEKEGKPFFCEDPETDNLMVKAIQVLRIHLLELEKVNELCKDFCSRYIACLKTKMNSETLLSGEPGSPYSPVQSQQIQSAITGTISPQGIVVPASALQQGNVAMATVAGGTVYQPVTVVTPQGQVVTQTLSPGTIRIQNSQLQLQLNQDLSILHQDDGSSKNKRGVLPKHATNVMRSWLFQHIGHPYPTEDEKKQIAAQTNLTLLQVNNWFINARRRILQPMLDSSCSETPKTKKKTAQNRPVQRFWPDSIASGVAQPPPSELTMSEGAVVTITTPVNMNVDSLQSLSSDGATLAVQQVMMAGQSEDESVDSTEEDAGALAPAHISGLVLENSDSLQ
UniProt Q9Y2E5: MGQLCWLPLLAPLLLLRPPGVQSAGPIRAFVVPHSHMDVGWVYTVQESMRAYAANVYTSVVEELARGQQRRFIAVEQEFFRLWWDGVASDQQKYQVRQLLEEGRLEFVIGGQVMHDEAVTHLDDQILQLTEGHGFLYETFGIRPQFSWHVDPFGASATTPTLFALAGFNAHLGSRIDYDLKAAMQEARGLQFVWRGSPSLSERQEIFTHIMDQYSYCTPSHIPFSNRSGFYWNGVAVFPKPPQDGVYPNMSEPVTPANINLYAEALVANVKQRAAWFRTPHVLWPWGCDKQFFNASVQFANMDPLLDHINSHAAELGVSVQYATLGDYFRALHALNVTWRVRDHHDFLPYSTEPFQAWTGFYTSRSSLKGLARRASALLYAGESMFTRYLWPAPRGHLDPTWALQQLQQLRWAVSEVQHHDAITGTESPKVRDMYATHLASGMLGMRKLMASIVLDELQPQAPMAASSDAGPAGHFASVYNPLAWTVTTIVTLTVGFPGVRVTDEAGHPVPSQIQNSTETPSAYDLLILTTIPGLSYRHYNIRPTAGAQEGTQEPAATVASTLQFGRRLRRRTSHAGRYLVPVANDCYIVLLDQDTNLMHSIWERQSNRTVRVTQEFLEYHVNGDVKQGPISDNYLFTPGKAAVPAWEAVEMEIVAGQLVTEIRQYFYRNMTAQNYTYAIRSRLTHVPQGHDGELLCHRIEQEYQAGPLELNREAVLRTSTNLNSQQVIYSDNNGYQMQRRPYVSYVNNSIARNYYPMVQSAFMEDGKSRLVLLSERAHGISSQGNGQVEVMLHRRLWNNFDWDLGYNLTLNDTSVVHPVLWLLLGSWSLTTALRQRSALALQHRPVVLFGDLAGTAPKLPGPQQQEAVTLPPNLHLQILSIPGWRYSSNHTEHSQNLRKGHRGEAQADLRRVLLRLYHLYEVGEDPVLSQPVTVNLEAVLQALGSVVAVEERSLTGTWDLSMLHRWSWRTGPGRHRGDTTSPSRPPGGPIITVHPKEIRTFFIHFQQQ

Compound: Nc1ncnc2c1ncn2[C@@H]1O[C@H](COP(=O)(O)OP(=O)(O)NP(=O)(O)O)[C@@H](O)[C@H]1O [adenylyl imidodiphosphate]
Assay: NP40-soluble protein abundance relative to vehicle (solubility fold change) (ratio); higher = more soluble protein in presence of AMP-PNP
In short: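 Jurkat crude lysate (Dounce-homogenised) was treated with eight concentrations from 0.1 to 10 mM for 10 min at room temperature, then 3 min at 37 °C. It was solubilised with 0.8% NP40 and benzonase (60 min, 4 °C) and ultracentrifuged, and the supernatant was TMT-labelled for LC-MS/MS. Intensities were vsn-normalised, and the value is the fold change against the NP40-processed vehicle per replicate, from three independent experiments.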

| Target | NP40-soluble protein abundance (concentration: 1mM) | NP40-soluble protein abundance (concentration: 2mM) | NP40-soluble protein abundance (concentration: 4mM) | NP40-soluble protein abundance (concentration: 6mM) | NP40-soluble protein abundance (concentration: 8mM) | NP40-soluble protein abundance (concentration: 10mM) |
| --- | --- | --- | --- | --- | --- | --- |
| F5H3X1 and related entries (UniProt Q6NXE6) | 0.959 ± 0.049 | 0.932 ± 0.017 | 0.95 ± 0.048 | 0.92 ± 0.045 | 0.899 ± 0.082 | 0.857 ± 0.07 |
| F5GYQ1 and related entries (UniProt P61421) | 1.01 ± 0.037 | 0.922 ± 0.086 | 0.939 ± 0.035 | 0.898 ± 0.071 | 0.924 ± 0.076 | 0.851 ± 0.062 |
| E7ESL0 and related entries (UniProt Q9NWU5) | 0.989 ± 0.076 | 0.962 ± 0.1 | 0.948 ± 0.11 | 0.932 ± 0.14 | 0.945 ± 0.11 | 0.949 ± 0.16 |
| F2Z388 and related entries (UniProt P42766) | 1 ± 0.029 | 1.1 ± 0.11 | 0.975 ± 0.036 | 0.969 ± 0.028 | 0.81 ± 0.14 | 1.03 ± 0.099 |
| E9PSH8 and related entries (UniProt P07766) | 1.03 ± 0.012 | 1.1 ± 0.046 | 1.05 ± 0.019 | 1.04 ± 0.018 | 1.06 ± 0.03 | 1.1 ± 0.071 |
| E9PDF6 and related entries (UniProt O43795) | 2.06 ± 0.29 | 2.04 ± 0.2 | 2.31 ± 0.29 | 2.37 ± 0.28 | 2.45 ± 0.32 | 2.39 ± 0.27 |
| F8W1S5 and related entries (UniProt Q00537) | 1.013 ± 0.009 | 0.997 ± 0.049 | 0.984 ± 0.019 | 0.992 ± 0.015 | 0.985 ± 0.025 | 1 ± 0.028 |
| E7EQN5 and related entries (UniProt P98171) | 0.999 ± 0.013 | 0.997 ± 0.05 | 1.02 ± 0.032 | 1.03 ± 0.077 | 1.01 ± 0.056 | 1.04 ± 0.023 |
| G3V0I5 and related entries (UniProt P49821) | 0.948 ± 0.029 | 0.929 ± 0.035 | 0.966 ± 0.08 | 1.01 ± 0.027 | 1.02 ± 0.04 | 1.02 ± 0.13 |
| E9PEQ6 and related entries (UniProt Q9UNP9) | 0.993 ± 0.041 | 1 ± 0.031 | 0.983 ± 0.035 | 0.998 ± 0.064 | 0.954 ± 0.048 | 0.957 ± 0.046 |
| F5H5P2 and related entries (UniProt P12694+F5H5P2) | 1.04 ± 0.076 | 1.05 ± 0.057 | 1.06 ± 0.048 | 1.04 ± 0.074 | 1.04 ± 0.074 | 1.07 ± 0.07 |
| E9PSD3 and related entries (UniProt O43427) | 0.926 ± 0.026 | 0.862 ± 0.067 | 0.91 ± 0.015 | 0.922 ± 0.04 | 0.933 ± 0.011 | 0.904 ± 0.038 |
| F2Z2W7 and related entries (UniProt Q8IZ69) | 1.01 ± 0.02 | 1.02 ± 0.017 | 1.03 ± 0.016 | 1 ± 0.015 | 0.973 ± 0.029 | 0.955 ± 0.042 |
| E7EPN6 and related entries (UniProt P55347) | 1.01 ± 0.03 | 1 ± 0.072 | 1.03 ± 0.039 | 1.06 ± 0.071 | 1.08 ± 0.035 | 1.07 ± 0.06 |
| E9PCD7 and related entries (UniProt Q9Y2E5) | 0.987 ± 0.0034 | 0.998 ± 0.042 | 0.9932 ± 0.0061 | 0.986 ± 0.022 | 1.01 ± 0.018 | 0.985 ± 0.026 |

An excerpt of these results, in CSV form:
Target,NP40-soluble protein abundance (concentration: 1mM),NP40-soluble protein abundance (concentration: 2mM),NP40-soluble protein abundance (concentration: 4mM),NP40-soluble protein abundance (concentration: 6mM),NP40-soluble protein abundance (concentration: 8mM),NP40-soluble protein abundance (concentration: 10mM)
F5H3X1 and related entries (UniProt Q6NXE6),0.959 ± 0.049,0.932 ± 0.017,0.95 ± 0.048,0.92 ± 0.045,0.899 ± 0.082,0.857 ± 0.07
F2Z388 and related entries (UniProt P42766),1 ± 0.029,1.1 ± 0.11,0.975 ± 0.036,0.969 ± 0.028,0.81 ± 0.14,1.03 ± 0.099
